Results deposited as PubChem BioAssay AID1259405 (NCATS, 2018).

- Test: 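Silenced genes that increase secreted GFP made by CHO cells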 (primary screen)
- Cells: Chinese hamster CHO-K1 ovary cells with stable secreted eGFP expression
- Reagents: single siRNA against mouse genes, 0.8 pmol siRNA per well (2 µl of 400 nM stock)
- Time to read-out: 3 days
- Detection: 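Per-well intracellular GFP measured by laser scanning cytometry, plus viability from ATP luminescence, each relative to plate median of non-targeting control wells, in %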
- Scale: GFP, % of control: higher = more GFP per well, higher productivity; viability (ATP), % of control: higher = more viable cells (more ATP)
- Rule for the call: 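a knock-down is called active if GFP reaches 120% or more of non-targeting control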
The whole screen tested about 50,000 reagents; this is an unselected part. About 4,000 of all reagents (8%) were called active. 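Mouse siRNA library applied to hamster cells; one well for each siRNA.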 The numbers tell different reagents against one gene apart. Reagent sequences are not shown.

| target | reagent no. | GFP, % of control | viability (ATP), % of control | outcome |
| --- | --- | --- | --- | --- |
| Zfp46 (GeneID 22704) | 1 | 88 | 64.2 | inactive |
| Zfp46 (GeneID 22704) | 2 | 56.1 | 67.9 | inactive |
| Zfp46 (GeneID 22704) | 3 | 122 | 107 | active |
| Or6c212 (GeneID 258548) | 1 | 67.2 | 82.3 | inactive |
| Or6c212 (GeneID 258548) | 2 | 34.3 | 35.5 | inactive |
| Or6c212 (GeneID 258548) | 3 | 84.2 | 94.2 | inactive |
| Lrig3 (GeneID 320398) | 1 | 56 | 51.6 | inactive |
| Lrig3 (GeneID 320398) | 2 | 91.7 | 92.8 | inactive |
| Lrig3 (GeneID 320398) | 3 | 54 | 86.9 | inactive |
| Bmf (GeneID 171543) | 1 | 130 | 108 | active |
| Bmf (GeneID 171543) | 2 | 59.5 | 64.5 | inactive |
| Bmf (GeneID 171543) | 3 | 146 | 146 | active |
| Gas2l2 (GeneID 237891) | 1 | 53.4 | 60.6 | inactive |
| Gas2l2 (GeneID 237891) | 2 | 80.4 | 45 | inactive |
| Gas2l2 (GeneID 237891) | 3 | 141 | 94.8 | active |
| Dlx1 (GeneID 13390) | 1 | 26.7 | 57.9 | inactive |
| Dlx1 (GeneID 13390) | 2 | 47.3 | 38.9 | inactive |
| Dlx1 (GeneID 13390) | 3 | 84.8 | 68.1 | inactive |
| Setd1b (GeneID 208043) | 1 | 67.5 | 22.3 | inactive |
| Setd1b (GeneID 208043) | 2 | 54.3 | 111 | inactive |
| Setd1b (GeneID 208043) | 3 | 65.9 | 69.4 | inactive |
| Cyp2d10 (GeneID 13101) | 1 | 112 | 31.7 | inactive |
| Cyp2d10 (GeneID 13101) | 2 | 65.7 | 66.2 | inactive |
| Cyp2d10 (GeneID 13101) | 3 | 52.4 | 60.3 | inactive |
| Ciita (GeneID 12265) | 1 | 85.9 | 65.7 | inactive |
| Ciita (GeneID 12265) | 2 | 68 | 54.9 | inactive |
| Aoc2 (GeneID 237940) | 1 | 65.3 | 83.3 | inactive |
| Aoc2 (GeneID 237940) | 2 | 57.5 | 89.4 | inactive |
| Aoc2 (GeneID 237940) | 3 | 72.2 | 79.1 | inactive |
| Xcr1 (GeneID 23832) | 1 | 26.4 | 32.1 | inactive |
| Xcr1 (GeneID 23832) | 2 | 84.5 | 98.1 | inactive |
| Xcr1 (GeneID 23832) | 3 | 66.8 | 70.1 | inactive |
| Eid1 (GeneID 58521) | 1 | 90.6 | 64.3 | inactive |
| Eid1 (GeneID 58521) | 2 | 70.8 | 66.6 | inactive |
| Eid1 (GeneID 58521) | 3 | 94.4 | 90.4 | inactive |
| Hs6st1 (GeneID 50785) | 1 | 288 | 157 | active |
| Hs6st1 (GeneID 50785) | 2 | 86.3 | 82.7 | inactive |
| Hs6st1 (GeneID 50785) | 3 | 64.8 | 49 | inactive |
| Prr9 (GeneID 109314) | 1 | 115 | 68.6 | inactive |
| Prr9 (GeneID 109314) | 2 | 95.1 | 120 | inactive |
| Prr9 (GeneID 109314) | 3 | 69.7 | 84.1 | inactive |
| Lmnb2 (GeneID 16907) | 1 | 123 | 75.4 | active |
| Lmnb2 (GeneID 16907) | 2 | 80.8 | 99.4 | inactive |
| Tcl1b2 (GeneID 27381) | 1 | 108 | 70.7 | inactive |
| Tcl1b2 (GeneID 27381) | 2 | 91.3 | 118 | inactive |
| Tcl1b2 (GeneID 27381) | 3 | 156 | 138 | active |
| Mup5 (GeneID 17844) | 1 | 42.7 | 21.6 | inactive |
| Mup5 (GeneID 17844) | 2 | 75.2 | 56 | inactive |
| Mup5 (GeneID 17844) | 3 | 103 | 44.1 | inactive |
| Or10a49 (GeneID 258136) | 1 | 94.9 | 75 | inactive |
| Or10a49 (GeneID 258136) | 2 | 67.9 | 88.4 | inactive |
| Or10a49 (GeneID 258136) | 3 | 55.8 | 67.8 | inactive |

Targets listed so far whose gene name starts with C or c (5):
| target | reagent no. | GFP, % of control | viability (ATP), % of control | outcome |
| --- | --- | --- | --- | --- |
| Cyp2d10 (GeneID 13101) | 1 | 112 | 31.7 | inactive |
| Cyp2d10 (GeneID 13101) | 2 | 65.7 | 66.2 | inactive |
| Cyp2d10 (GeneID 13101) | 3 | 52.4 | 60.3 | inactive |
| Ciita (GeneID 12265) | 1 | 85.9 | 65.7 | inactive |
| Ciita (GeneID 12265) | 2 | 68 | 54.9 | inactive |

Further records follow.
| target | reagent no. | GFP, % of control | viability (ATP), % of control | outcome |
| --- | --- | --- | --- | --- |
| Atxn7 (GeneID 246103) | 1 | 176 | 36.3 | active |
| Atxn7 (GeneID 246103) | 2 | 83.3 | 69.3 | inactive |
| Atxn7 (GeneID 246103) | 3 | 49.5 | 67.7 | inactive |
| Smgc (GeneID 223809) | 1 | 83.9 | 70.6 | inactive |
| Smgc (GeneID 223809) | 2 | 140 | 91.5 | active |
| Smgc (GeneID 223809) | 3 | 98.5 | 60.9 | inactive |
| Or5p56 (GeneID 258928) | 1 | 54.5 | 61.1 | inactive |
| Or5p56 (GeneID 258928) | 2 | 81.6 | 80.2 | inactive |
| Or5p56 (GeneID 258928) | 3 | 28 | 32.9 | inactive |
| Spata3 (GeneID 70060) | 1 | 73.8 | 60.7 | inactive |
| Spata3 (GeneID 70060) | 2 | 95.4 | 74 | inactive |
| Spata3 (GeneID 70060) | 3 | 53.9 | 61.2 | inactive |
| Vegfc (GeneID 22341) | 1 | 136 | 95.1 | active |
| Vegfc (GeneID 22341) | 2 | 128 | 84.8 | active |
| Vegfc (GeneID 22341) | 3 | 150 | 98.7 | active |
| Ttyh3 (GeneID 78339) | 1 | 164 | 63.5 | active |
| Ttyh3 (GeneID 78339) | 2 | 95.2 | 94.6 | inactive |
| Ttyh3 (GeneID 78339) | 3 | 88.3 | 74.7 | inactive |
| Scp2d1 (GeneID 66328) | 1 | 73.9 | 60.8 | inactive |
| Scp2d1 (GeneID 66328) | 2 | 86.6 | 83.6 | inactive |
| Scp2d1 (GeneID 66328) | 3 | 47.3 | 75.6 | inactive |
| Tram1l1 (GeneID 229801) | 1 | 58 | 64.7 | inactive |
| Tram1l1 (GeneID 229801) | 2 | 109 | 133 | inactive |
| Tram1l1 (GeneID 229801) | 3 | 84.3 | 89.8 | inactive |
| Psma5 (GeneID 26442) | 1 | 46.3 | 65 | inactive |
| Psma5 (GeneID 26442) | 2 | 5.71 | 2.84 | inactive |
| Psma5 (GeneID 26442) | 3 | 46.2 | 21.6 | inactive |
| Or9a4 (GeneID 258381) | 1 | 76.6 | 55.3 | inactive |
| Or9a4 (GeneID 258381) | 2 | 60.2 | 76.9 | inactive |
| Or9a4 (GeneID 258381) | 3 | 34.2 | 45.5 | inactive |
| Arid4b (GeneID 94246) | 1 | 87.1 | 73.7 | inactive |
| Arid4b (GeneID 94246) | 2 | 43 | 67.5 | inactive |
